{
  "sequences": {"note": "By UniProt entry, the sequences of proteins in these tests, tags left out. Where a name states a change or a piece, a line headed by the entry shows the natural chain unless it says otherwise.", "UniProt P25963": "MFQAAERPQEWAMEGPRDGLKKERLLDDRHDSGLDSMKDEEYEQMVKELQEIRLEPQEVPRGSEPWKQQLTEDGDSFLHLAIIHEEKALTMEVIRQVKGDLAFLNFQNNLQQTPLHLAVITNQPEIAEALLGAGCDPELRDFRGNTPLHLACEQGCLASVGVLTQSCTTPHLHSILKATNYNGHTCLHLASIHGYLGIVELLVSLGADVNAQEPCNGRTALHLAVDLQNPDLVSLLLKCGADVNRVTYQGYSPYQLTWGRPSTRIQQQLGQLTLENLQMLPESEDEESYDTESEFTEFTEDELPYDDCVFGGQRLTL", "UniProt Q7Z6E9": "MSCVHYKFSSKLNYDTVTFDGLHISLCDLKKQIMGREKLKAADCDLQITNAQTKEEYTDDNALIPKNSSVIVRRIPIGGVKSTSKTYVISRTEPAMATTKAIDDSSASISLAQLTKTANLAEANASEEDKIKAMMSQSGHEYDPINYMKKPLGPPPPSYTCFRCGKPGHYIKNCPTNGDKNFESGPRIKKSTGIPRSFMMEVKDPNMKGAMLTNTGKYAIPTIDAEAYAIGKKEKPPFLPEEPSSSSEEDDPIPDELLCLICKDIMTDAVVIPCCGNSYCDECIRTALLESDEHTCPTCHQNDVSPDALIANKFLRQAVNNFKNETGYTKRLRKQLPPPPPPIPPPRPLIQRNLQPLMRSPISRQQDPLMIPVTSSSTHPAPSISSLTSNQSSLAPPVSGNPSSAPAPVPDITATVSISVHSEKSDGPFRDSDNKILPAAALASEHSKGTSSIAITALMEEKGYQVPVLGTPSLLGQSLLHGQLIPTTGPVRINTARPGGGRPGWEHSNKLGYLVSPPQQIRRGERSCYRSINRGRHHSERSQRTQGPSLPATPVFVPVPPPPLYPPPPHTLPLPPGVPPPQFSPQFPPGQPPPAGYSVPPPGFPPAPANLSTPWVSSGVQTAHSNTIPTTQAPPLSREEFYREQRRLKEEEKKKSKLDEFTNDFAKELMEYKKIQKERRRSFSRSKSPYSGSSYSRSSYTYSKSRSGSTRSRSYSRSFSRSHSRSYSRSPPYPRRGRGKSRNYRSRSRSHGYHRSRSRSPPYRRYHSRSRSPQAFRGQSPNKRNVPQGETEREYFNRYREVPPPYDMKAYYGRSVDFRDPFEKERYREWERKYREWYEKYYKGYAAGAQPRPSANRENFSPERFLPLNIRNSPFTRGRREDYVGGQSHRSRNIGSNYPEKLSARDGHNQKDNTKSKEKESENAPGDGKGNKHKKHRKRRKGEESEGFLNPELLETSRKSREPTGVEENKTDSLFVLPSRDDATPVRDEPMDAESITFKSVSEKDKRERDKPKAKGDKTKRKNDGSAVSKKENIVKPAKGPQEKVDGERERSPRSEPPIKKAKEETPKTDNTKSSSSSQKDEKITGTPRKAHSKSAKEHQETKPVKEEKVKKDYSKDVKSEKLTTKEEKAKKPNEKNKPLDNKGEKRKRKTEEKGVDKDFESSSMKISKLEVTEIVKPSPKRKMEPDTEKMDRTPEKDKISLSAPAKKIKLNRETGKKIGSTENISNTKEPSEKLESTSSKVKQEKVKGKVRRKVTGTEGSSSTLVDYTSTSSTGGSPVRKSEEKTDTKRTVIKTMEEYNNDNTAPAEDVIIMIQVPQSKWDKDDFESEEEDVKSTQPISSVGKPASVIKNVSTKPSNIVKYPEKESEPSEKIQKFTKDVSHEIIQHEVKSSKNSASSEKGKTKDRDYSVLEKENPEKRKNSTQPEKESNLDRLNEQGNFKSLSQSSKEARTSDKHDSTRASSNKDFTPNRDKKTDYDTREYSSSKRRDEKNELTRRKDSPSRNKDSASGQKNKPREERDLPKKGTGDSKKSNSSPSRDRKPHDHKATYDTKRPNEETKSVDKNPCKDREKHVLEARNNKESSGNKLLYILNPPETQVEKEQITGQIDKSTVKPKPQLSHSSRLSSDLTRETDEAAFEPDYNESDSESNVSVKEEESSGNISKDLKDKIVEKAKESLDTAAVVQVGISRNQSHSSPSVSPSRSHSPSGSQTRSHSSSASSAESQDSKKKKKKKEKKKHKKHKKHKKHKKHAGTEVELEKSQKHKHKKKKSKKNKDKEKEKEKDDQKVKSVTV"},
  "source": "paper PMC6828677",
  "target": "Flag-IκBα (UniProt P25963)",
  "assay": "co-IP; HEK293 cells co-transfected with Flag-IκBα and HA-RBBP6 (full length or ΔRing Finger); lysates incubated with 2 μg antibody at 4 °C overnight, protein A/G agarose beads 4 h at 4 °C, PBS washes, western blot",
  "note": "Results are given in words; binding and its absence hold for the method and conditions named. In cells and extracts the contact can be indirect.",
  "data": [
    {"substance": "HA-RBBP6 (ΔRing Finger) (from UniProt Q7Z6E9)", "values": [
      {"measurement": "binding", "value": "no binding"}
    ]}
  ]
}
